Data from paper PMC7819943, “Rice protein-binding microarrays: a tool to detect cis-acting elements near promoter regions in rice”.
The list shows a part of the results.

target: T1, OsSMF1 (Oryza sativa, UniProt Q6ZLB0 1-436); experiment: protein-binding microarray (RPBM); PBS, 2% BSA, 51.3 ng/ul salmon testes DNA, 50 uM zinc acetate, 200 nM TF, 25 C, 1 h; high values mean tight binding; conditions: protein: recombinant; tags: N-terminal polyhistidine and DsRed monomer fusion (pET32a); chain copies: 2; label: CyDye5-dUTP incorporated in the synthesized complementary strand; 3' TTTTT single-stranded linker to array surface; dsDNA, one strand shown
T1 sequence: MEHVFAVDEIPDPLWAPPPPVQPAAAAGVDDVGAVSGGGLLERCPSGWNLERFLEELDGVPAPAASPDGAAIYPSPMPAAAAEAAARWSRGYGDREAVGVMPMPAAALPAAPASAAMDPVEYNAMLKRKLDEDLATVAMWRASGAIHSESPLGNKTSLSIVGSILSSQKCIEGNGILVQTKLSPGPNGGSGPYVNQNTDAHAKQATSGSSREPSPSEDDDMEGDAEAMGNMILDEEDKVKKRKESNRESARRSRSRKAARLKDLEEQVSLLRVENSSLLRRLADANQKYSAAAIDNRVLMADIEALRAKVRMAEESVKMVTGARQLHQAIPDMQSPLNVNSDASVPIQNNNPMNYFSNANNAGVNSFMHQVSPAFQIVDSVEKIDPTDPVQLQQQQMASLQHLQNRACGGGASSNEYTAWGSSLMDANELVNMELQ
Summary of the method: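 Transcription factors were each fused at the N-terminus to a polyhistidine tag plus DsRed and expressed in E. coli BL21-CodonPlus before Ni–NTA purification. Binding to a double-stranded custom Agilent array was carried out with 200 nM protein at 25 °C for 1 h in PBS, 2% BSA, salmon testes DNA and 50 µM zinc acetate. The binding signal is per-feature fluorescence intensity, in arbitrary units, on an Axon 4000B scanner.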

| Sequence | binding signal |
| --- | --- |
| GGTCAATTTATAACATACCGCAGGTCCGCAAGTGACGAGGCGGAGTCACCTAGTGCAG | 3280 fluorescence intensity (a.u.) |
| CCACCTCCAACAACAACGGCCTTGTCATTTCCTCTACCGCCGGAGTCACCTAGTGCAG | 3850 fluorescence intensity (a.u.) |
| GGGGACATACTTCTCGCAAATGTCTGCGCTACAGTGCTACCGGAGTCACCTAGTGCAG | 21200 fluorescence intensity (a.u.) |
| TAAGCTACCTACTAATGCCACGTGGCGGCCGTCAAGCGGGCGGAGTCACCTAGTGCAG | 19700 fluorescence intensity (a.u.) |
| TAATTTTCGAGTTTCCACGATATGTGGTTTGCCCGATATACGGAGTCACCTAGTGCAG | 3370 fluorescence intensity (a.u.) |
| TGCAGCGATGACGTATGCTGCAGTGCATCACGCAGTCGTACGGAGTCACCTAGTGCAG | 8070 fluorescence intensity (a.u.) |
| AGTGGGCACACCTTCCTCTCCTAGCTACCAAATTCTCTTCCGGAGTCACCTAGTGCAG | 17500 fluorescence intensity (a.u.) |
| CAAAACAGAAATCTGCCGCATTTCACGTGTAAAAGAAGAACGGAGTCACCTAGTGCAG | 31900 fluorescence intensity (a.u.) |
| AATTCATGAATTTTCTCTCCTTCTCATGCAATATCTGACTCGGAGTCACCTAGTGCAG | 3500 fluorescence intensity (a.u.) |
| CTCTCCTCTTTGCATGCATTCCTCCTGCCAAGAGTGCTGACGGAGTCACCTAGTGCAG | 3400 fluorescence intensity (a.u.) |
| CCACCACTGTCCTTCTCGCTTGCCGTGCCTCATCACCGCCCGGAGTCACCTAGTGCAG | 3860 fluorescence intensity (a.u.) |
| TAAAGAAAGAAAAGACATTAATAAAGCAGCAAAGAAAAGACGGAGTCACCTAGTGCAG | 46000 fluorescence intensity (a.u.) |
| TAGGGTTGTCATCGCTTGCCACCTACCTCTATAATCCGTGCGGAGTCACCTAGTGCAG | 4030 fluorescence intensity (a.u.) |
| GAATAATTTATTAAATAATTTATAAATCCTGAAACGAAAACGGAGTCACCTAGTGCAG | 3520 fluorescence intensity (a.u.) |
| TGTCATGCTTAAAGAACATTTGATGATAAATCAAATCATACGGAGTCACCTAGTGCAG | 36400 fluorescence intensity (a.u.) |
| TGAAGCCGTGACACGGTTCTCTAATCTGCTGAAGTCATGTCGGAGTCACCTAGTGCAG | 3880 fluorescence intensity (a.u.) |
| GCCACCGAACGAACGCGCCGACCGACCGCGCGAAGATCTGCGGAGTCACCTAGTGCAG | 3290 fluorescence intensity (a.u.) |
| CAAACCAAACCCGCGCAAGCCAATCCACCCCGGCCTAGTCCGGAGTCACCTAGTGCAG | 3150 fluorescence intensity (a.u.) |
| TACACTTGCCCGGTCATAACCCTAACCATTTCTTCCCTTCCGGAGTCACCTAGTGCAG | 4630 fluorescence intensity (a.u.) |
| TTGAAAATAACATTCCAAACCGATGACGCTCCGCTCCCTCCGGAGTCACCTAGTGCAG | 3660 fluorescence intensity (a.u.) |
| TGCTTCTCTCCGTGATGTGTGTGGGCCCACTAGCCACCGCCGGAGTCACCTAGTGCAG | 3150 fluorescence intensity (a.u.) |

| Sequence | binding signal |
| --- | --- |
| TCTCTCGCCGATTCCGCCACCGCCGCCGCGCCGCGCCTCGCGGAGTCACCTAGTGCAG | 3260 fluorescence intensity (a.u.) |
| CGTCCGCCTTGAACACGTGCGCCTCGGGCGTCTCCTTCCACGGAGTCACCTAGTGCAG | 4500 fluorescence intensity (a.u.) |
| GATACTGCTGTACTTGGAGCCAAGCGAGAGAGAAGACTGACGGAGTCACCTAGTGCAG | 3880 fluorescence intensity (a.u.) |
| ACCGGTTTGACCACGCCACTTCCTGCACCAGTCCACATACCGGAGTCACCTAGTGCAG | 3940 fluorescence intensity (a.u.) |
| TGGGTTTTGAATTTTCGAGGAAATTCTTACCGCCACAATACGGAGTCACCTAGTGCAG | 20600 fluorescence intensity (a.u.) |
| GTACCAGATGTGACACATTCTATTACTATGAATATGGATACGGAGTCACCTAGTGCAG | 3680 fluorescence intensity (a.u.) |
| CTCCTTTTATAGGCTTTGATAACTTGTGTTTAGCCTTGAGCGGAGTCACCTAGTGCAG | 34200 fluorescence intensity (a.u.) |
| GAAGACAAACAACCTATCGCTAGCATGCGAGATTTCTCTACGGAGTCACCTAGTGCAG | 35100 fluorescence intensity (a.u.) |
| CTATTTGTCATCCCTATCTCAATGACATGTGAGTCTAAATCGGAGTCACCTAGTGCAG | 3180 fluorescence intensity (a.u.) |
| CAATTCGGCTTTGTGTATAACATCATTGGTGATGTGGAATCGGAGTCACCTAGTGCAG | 7500 fluorescence intensity (a.u.) |
| CCGTCGAGCTCCCGGGATCTGGTCGTGGCACGCTCAGGGGCGGAGTCACCTAGTGCAG | 5300 fluorescence intensity (a.u.) |
| CGGTGTGAAACCAACCACGCCGGTGGATCCACGGCGGCGCCGGAGTCACCTAGTGCAG | 3290 fluorescence intensity (a.u.) |
| GAATTGCCACGTAAGCACCACGTCAGTGCCATGTCAGATGCGGAGTCACCTAGTGCAG | 52400 fluorescence intensity (a.u.) |
| CGACGACGCCACCAAGGCACCAACTCCACGTCTCCGCCCCCGGAGTCACCTAGTGCAG | 4730 fluorescence intensity (a.u.) |
| CTGTGACGACGTTGCTTGCCGCCTTGATGAGTCACTGCATCGGAGTCACCTAGTGCAG | 11000 fluorescence intensity (a.u.) |
| GAGCAGGAGGAGCTGAGCGACTCCGAGTCGGGCGCCGAGTCGGAGTCACCTAGTGCAG | 40100 fluorescence intensity (a.u.) |
| TCCATGTCCACCTCCTCCCCATCACCCCACCATTGCCTCGCGGAGTCACCTAGTGCAG | 4210 fluorescence intensity (a.u.) |
| GTAACAGGTAAACTGAAGATTACAGTGACGCATATTCACACGGAGTCACCTAGTGCAG | 3620 fluorescence intensity (a.u.) |
| TTGTGATTAGCCACATCAACCAAAAGCCTGTGTGTTTTGTCGGAGTCACCTAGTGCAG | 4520 fluorescence intensity (a.u.) |
| GTTTCCATTTTCCTTGCATCCATCTATAAAGATAGCTAGGCGGAGTCACCTAGTGCAG | 34700 fluorescence intensity (a.u.) |
| TTTCTTAATCACGTCATTTATTCAATTTGACTTAGCCCGGCGGAGTCACCTAGTGCAG | 5070 fluorescence intensity (a.u.) |

As entered above:
Entry for TCTCTCGCCGATTCCGCCACCGCCGCCGCGCCGCGCCTCGCGGAGTCACCTAGTGCAG under binding signal: 3260 fluorescence intensity (a.u.)
Entry for CTCCTTTTATAGGCTTTGATAACTTGTGTTTAGCCTTGAGCGGAGTCACCTAGTGCAG under binding signal: 34200 fluorescence intensity (a.u.)
